We go through 3 molecules from patent publication US7179464.

T1: fusion protein of the extracellular region of human IL-5R α and a human immunoglobulin constant region (hIL-5R α-Fc) (human) (UniProt Q01344)
T1 sequence: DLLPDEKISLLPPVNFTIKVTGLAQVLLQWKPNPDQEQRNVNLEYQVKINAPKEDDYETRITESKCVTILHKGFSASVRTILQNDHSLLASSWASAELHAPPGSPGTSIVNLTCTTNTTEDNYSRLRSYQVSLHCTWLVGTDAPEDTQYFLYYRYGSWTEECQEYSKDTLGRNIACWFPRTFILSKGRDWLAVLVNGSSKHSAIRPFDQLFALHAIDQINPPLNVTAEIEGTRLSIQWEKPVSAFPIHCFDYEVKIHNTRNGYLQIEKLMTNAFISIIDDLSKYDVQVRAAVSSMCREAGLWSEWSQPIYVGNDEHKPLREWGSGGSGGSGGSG

B1: anti-human IL-5R α chain human CDR-grafted antibody KM8397 (antibody, human IgG1, V domains shown)
VH: EVQLVQSGAEVKKPGASVKVSCKASGYTFTSYVIHWVRQAPGQGLEWMGYINPYNDGTKYNERFKGRVTITADTSTSTAYMELSSLRSEDTAVYYCAREGIRYYGLLGDYWGQGTLVTVSS
VL: DIQMTQSPSSLSASVGDRVTITCGTSEDIINYLNWYQQKPGKAPKLLIYHTSRLQSGVPSRFSGSGSGTDFTLTISSLQPEDFATYYCQQGYTLPYTFGQGTKVEIK
B2: anti-human IL-5R α human CDR-grafted antibody HV.2LV.0 (antibody, human IgG1, V domains shown)
VH: EVQLVQSGAEVKKPGASVKVSCKASGYTFTSYVIHWVRQAPGQGLAWMGYINPYNDGTKYNERFKGRVTITADRSTSTAYMELSSLRSEDTAVYLCGREGIRYYGLLGDYWGQGTLVTVSS
VL: DIQMTQSPSSLSASVGDRVTITCGTSEDIINYLNWYQQKPGKAPKLLIYHTSRLQSGVPSRFSGSGSGTDFTLTISSLQPEDFATYYCQQGYTLPYTFGQGTKVEIK
B3: anti-human IL-5R α human CDR-grafted antibody HV.1LV.0 (antibody, human IgG1, V domains shown)
VH: EVQLVQSGAEVKKPGASVKVSCKASGYTFTSYVIHWVRQAPGQGLEWMGYINPYNDGTKYNERFKGRVTITADTSTSTAYMELSSLRSEDTAVYLCGREGIRYYGLLGDYWGQGTLVTVSS
VL: DIQMTQSPSSLSASVGDRVTITCGTSEDIINYLNWYQQKPGKAPKLLIYHTSRLQSGVPSRFSGSGSGTDFTLTISSLQPEDFATYYCQQGYTLPYTFGQGTKVEIK

No constants are given. Whether binding was seen depends on the method and setting. Some entries that bind do so weakly or less than the wild type. Where a sequence is shown, tags or fusion partners need not be part of it.

This test deals with T1, fusion protein of the extracellular region of human IL-5R α and a human immunoglobulin constant region (hIL-5R α-Fc) (human). In words: ELISA method 1, transient COS-7 supernatant, normalized to antibody concentration, relative to KM1399 = 100. In general terms: ELISA stands for enzyme-linked immunosorbent assay.
On to B1, for which the binding entry is given as “binds”.
For B2 the value was “binds”; for B3, “binds”.
